PubChem BioAssay AID686937 – Drosophila RNAi Screening Center | 2013
The deposit covers about 23,000 reagents; this is a random part of those with a known target gene and a result. 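Reduced-secretion tags in replicate 1 do not always agree with the z-scores; no criterion for assigning the tags was given.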 No sequences are given here. Not given: the amount of reagent.

Aim: 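Knock-downs that reduce output of a secreted reporter enzyme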 (primary screen)
System: Drosophila S2 cells expressing secreted horseradish peroxidase
Reagents: long dsRNA against Drosophila genes
Timing: about 5.5 days (5 days dsRNA, then 12 h reporter induction)
Challenge: reporter expression induced after 5 days of dsRNA, read 12 h later; inducer not stated
Measured: 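After 5 days of dsRNA and 12 h of reporter induction, medium peroxidase read by chemiluminescence and scored as per-plate z-score; higher values mean more reporter released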
Reading the numbers: z-score: higher = more reporter secreted into medium

predicted target | DRSC id | z-score, replicate 1 | z-score, replicate 2 | z-score, replicate 3 | z-score, replicate 4 | phenotype, replicate 1
Oatp30B (Organic anion transporting polypeptide 30B) | DRSC02727 | 0.03 | 0.19 | – | – | –
ninaE (neither inactivation nor afterpotential E) | DRSC17014 | 0.41 | 0.41 | – | – | –
Mcad (Medium-chain acyl-CoA dehydrogenase) | DRSC09871 | 0.56 | 0.41 | – | – | –
CG9308 | DRSC04539 | 0.41 | 0.4 | – | – | –
Ugt36E1 (UDP-glycosyltransferase family 36 member E1) | DRSC02599 | 0.23 | 0.15 | – | – | –
lmd (lame duck) | DRSC15618 | 0.03 | 0.06 | – | – | –
CG32603 | DRSC19409 | 0.52 | 0.56 | – | – | –
CG32603 | DRSC21586 | -0.05 | 0.15 | – | – | –
CG34457 | DRSC06924 | -0.26 | 0.29 | – | – | –
ZnT41F (Zinc transporter 41F) | DRSC04850 | 0.29 | 0.26 | – | – | –
CG13392 | DRSC02262 | 0.17 | 0.13 | – | – | –
CG5079 | DRSC15713 | -2.19 | -2.55 | – | – | reduced secretion
Ccp84Ae | DRSC12590 | 0.28 | 0.58 | 0.14 | 0.25 | –
Hmg-2 (High mobility group protein 2) | DRSC04554 | 0.23 | 0.1 | – | – | –
Ih (I[[h]] channel) | DRSC05477 | 0.46 | 0.24 | – | – | –
Ih (I[[h]] channel) | DRSC07445 | 0.17 | 0.2 | – | – | –
Ih (I[[h]] channel) | DRSC22956 | -0.73 | -0.17 | – | – | –
CG14650 | DRSC12236 | 0.29 | 0.45 | 0.77 | 0.7 | –
CG16820 | DRSC02522 | 0.18 | 0.26 | – | – | –
S2P (site-2 protease) | DRSC07311 | -0.31 | 0.07 | – | – | –
Cpr78Cc (Cuticular protein 78Cc) | DRSC11846 | 0.38 | 0.13 | – | – | –
CG14102 | DRSC10103 | 0.3 | 0.33 | – | – | –
CG8032 | DRSC16365 | 0.31 | 0.42 | – | – | –
tral (trailer hitch) | DRSC09779 | -1.62 | -1.32 | – | – | reduced secretion
Spn42De (Serpin 42De) | DRSC05011 | 0.12 | 0.42 | – | – | –
CG13137 | DRSC02234 | 0.22 | 0.44 | – | – | –
Mrm2 (Mitochondrial rRNA methyltransferase 2) | DRSC14310 | 0.23 | 0.11 | – | – | –
CG5089 | DRSC06914 | 0.38 | 0.38 | – | – | –
cold (coiled) | DRSC00538 | 0.12 | 0.38 | – | – | –
hale (hale-bopp) | DRSC10882 | 0.17 | 0.14 | – | – | –
CG10431 | DRSC02055 | 0.18 | 0.32 | – | – | –
CG33500 | DRSC09115 | -2.49 | -2.02 | – | – | reduced secretion
CG3119 | DRSC00569 | -0.04 | 0.21 | – | – | –
